Consider one molecule from PMC11005415.

No constants are given. Whether binding was seen depends on the method and setting. Binding seen in cells or lysates may run through a third protein. A yes stands for co-enrichment or nearness to the bait. Other partners may have been found. Sequences can lack the tags named with a protein.

In this assay the target is T1, Cactin-V5 (Drosophila melanogaster) (UniProt Q9VR99).
T1 sequence: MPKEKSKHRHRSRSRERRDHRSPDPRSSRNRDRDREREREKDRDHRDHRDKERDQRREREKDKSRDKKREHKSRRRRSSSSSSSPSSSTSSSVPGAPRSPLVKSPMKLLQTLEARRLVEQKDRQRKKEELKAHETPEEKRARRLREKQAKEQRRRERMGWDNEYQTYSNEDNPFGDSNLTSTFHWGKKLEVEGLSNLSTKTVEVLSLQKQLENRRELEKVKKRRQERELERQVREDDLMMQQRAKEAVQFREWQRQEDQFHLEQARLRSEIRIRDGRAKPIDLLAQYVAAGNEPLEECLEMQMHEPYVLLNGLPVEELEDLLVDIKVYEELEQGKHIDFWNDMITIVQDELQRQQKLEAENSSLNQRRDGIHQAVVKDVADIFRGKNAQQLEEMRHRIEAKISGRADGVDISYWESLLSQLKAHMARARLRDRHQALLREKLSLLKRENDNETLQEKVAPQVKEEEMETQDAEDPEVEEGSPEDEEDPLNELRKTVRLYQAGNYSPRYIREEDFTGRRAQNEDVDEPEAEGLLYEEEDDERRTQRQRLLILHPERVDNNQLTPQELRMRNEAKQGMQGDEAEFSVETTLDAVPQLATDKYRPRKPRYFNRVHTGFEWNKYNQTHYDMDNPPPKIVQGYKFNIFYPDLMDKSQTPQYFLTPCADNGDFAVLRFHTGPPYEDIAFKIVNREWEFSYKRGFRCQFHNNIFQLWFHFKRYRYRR
The experiment in a line: affinity purification with mass spectrometry; anti-V5 immunoprecipitation of the Cactin-protein complex from S2 cells overexpressing Cactin-V5, with or without DCV infection; enriched 50-kDa band identified by mass spectrometry.

B1: phosphoglycerate kinase (PGK), endogenous (enzyme, UniProt Q01604 1-415)
chain: MAFNKLSIENLDLAGKRVLMRVDFNVPIKEGKITSNQRIVAALDSIKLALSKKAKSVVLMSHLGRPDGNKNIKYTLAPVAAELKTLLGQDVIFLSDCVGSEVEAACKDPAPGSVILLENVRFYVEEEGKGLDASGGKVKADPAKVKEFRASLAKLGDVYVNDAFGTAHRAHSSMMGDGFEQRAAGLLLNKELKYFSQALDKPPNPFLAILGGAKVADKIQLIENLLDKVNEMIIGGGMAFTFLKVLNNMKIGGSLFDEEGSKIVEKLVEKAKKNNVQLHLPVDFVCGDKFAENAAVSEATVEAGIPDGHMGLDVGPKTRELFAAPIARAKLIVWNGPPGVFEFPNFANGTKSIMDGVVAATKNGTVSIIGGGDTASCCAKWNTEALVSHVSTGGGASLELLEGKTLPGVAALTSA
As to B1, the binding entry is given as “binds”.
